# Results are given in words; binding and its absence hold for the method and conditions named. Binding seen in cells or lysates may run through a third protein. Some binding calls cover weakened binding; strength is not graded here.
# By UniProt entry, the sequences of proteins in these tests, tags left out.
# UniProt P51531: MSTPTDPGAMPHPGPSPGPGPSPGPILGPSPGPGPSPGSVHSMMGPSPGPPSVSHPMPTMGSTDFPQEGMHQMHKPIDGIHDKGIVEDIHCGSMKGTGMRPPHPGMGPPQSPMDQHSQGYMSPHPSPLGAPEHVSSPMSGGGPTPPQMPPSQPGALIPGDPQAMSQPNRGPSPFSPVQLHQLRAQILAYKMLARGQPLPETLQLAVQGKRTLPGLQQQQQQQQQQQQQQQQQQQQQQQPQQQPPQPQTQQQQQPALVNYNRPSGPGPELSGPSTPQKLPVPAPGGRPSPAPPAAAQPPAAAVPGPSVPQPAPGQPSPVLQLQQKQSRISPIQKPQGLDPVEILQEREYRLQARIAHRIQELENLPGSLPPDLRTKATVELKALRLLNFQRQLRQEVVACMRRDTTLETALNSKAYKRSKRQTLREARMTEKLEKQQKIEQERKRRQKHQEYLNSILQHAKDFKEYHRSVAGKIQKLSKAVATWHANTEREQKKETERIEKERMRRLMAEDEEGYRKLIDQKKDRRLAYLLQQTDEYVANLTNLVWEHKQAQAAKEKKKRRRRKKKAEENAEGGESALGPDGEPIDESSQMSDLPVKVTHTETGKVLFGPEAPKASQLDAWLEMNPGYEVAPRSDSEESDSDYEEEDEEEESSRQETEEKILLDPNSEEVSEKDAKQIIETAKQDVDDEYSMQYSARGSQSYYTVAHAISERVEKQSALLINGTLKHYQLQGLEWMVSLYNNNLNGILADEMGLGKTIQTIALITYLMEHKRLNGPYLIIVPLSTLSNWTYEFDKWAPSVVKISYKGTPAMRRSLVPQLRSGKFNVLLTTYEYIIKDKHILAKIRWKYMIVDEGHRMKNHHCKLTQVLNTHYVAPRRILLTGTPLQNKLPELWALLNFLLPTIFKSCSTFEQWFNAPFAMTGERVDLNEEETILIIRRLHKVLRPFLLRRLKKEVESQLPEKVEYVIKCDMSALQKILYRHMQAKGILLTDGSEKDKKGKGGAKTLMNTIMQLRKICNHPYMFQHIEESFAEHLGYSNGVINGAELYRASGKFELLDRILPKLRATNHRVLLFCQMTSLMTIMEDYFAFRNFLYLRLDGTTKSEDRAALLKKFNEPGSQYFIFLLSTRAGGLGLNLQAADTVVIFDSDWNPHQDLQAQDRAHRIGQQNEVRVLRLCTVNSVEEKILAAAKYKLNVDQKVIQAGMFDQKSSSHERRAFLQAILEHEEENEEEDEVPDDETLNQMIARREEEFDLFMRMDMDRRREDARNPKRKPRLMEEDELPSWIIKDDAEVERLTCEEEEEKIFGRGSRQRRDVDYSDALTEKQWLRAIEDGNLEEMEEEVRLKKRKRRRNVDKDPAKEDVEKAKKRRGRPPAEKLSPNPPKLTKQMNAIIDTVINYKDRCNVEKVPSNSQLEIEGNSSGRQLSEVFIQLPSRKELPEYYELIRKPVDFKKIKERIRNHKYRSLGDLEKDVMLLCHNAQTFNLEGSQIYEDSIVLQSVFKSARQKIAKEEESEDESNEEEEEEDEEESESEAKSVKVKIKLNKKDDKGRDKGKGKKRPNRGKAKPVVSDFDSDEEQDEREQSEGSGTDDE
# Experiments:
# SCAI aa 1–212 (n-t) = biological target: T1, SCAI aa 1–212 (n-t) (UniProt Q8N9R8); assay: co-IP; HEK293 cells transfected with Myc-BRM and Flag-SCAI constructs, lysed after 16 h; α-Flag-agarose at 4°C for 1 hour; immunoblot (Figure 2C); lysis buffer HNG or RIPA
# T1 sequence: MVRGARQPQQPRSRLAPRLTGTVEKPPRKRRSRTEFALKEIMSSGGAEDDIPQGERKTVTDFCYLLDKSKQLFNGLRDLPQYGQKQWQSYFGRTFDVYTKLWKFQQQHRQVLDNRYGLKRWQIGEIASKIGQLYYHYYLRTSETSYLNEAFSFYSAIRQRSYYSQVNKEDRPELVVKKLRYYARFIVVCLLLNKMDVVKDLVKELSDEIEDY
# SCAI aa 460–606 (ΔN) = biological target: T2, SCAI aa 460–606 (ΔN) (UniProt Q8N9R8); assay: as above
# T2 sequence: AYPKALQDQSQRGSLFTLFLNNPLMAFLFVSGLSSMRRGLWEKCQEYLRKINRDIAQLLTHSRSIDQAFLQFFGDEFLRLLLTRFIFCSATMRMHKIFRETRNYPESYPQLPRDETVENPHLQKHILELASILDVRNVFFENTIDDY
substance,measurement,setting,value
Myc-tagged BRM (from UniProt P51531 1-1590),binding,SCAI aa 1–212 (n-t),binds
same,binding,SCAI aa 460–606 (ΔN),no binding

# Source: publication PMC3732290
